# According to the supplement of paper PMC3334620:
# Over roughly 33,000 sequences, “E-score (-0.5 to 0.5)” has its median near -0.0014; the highest 2% begin near 0.25. This is one part of the list.
# Biological target: T1, Cad1 (UniProt P24813)
# T1 sequence: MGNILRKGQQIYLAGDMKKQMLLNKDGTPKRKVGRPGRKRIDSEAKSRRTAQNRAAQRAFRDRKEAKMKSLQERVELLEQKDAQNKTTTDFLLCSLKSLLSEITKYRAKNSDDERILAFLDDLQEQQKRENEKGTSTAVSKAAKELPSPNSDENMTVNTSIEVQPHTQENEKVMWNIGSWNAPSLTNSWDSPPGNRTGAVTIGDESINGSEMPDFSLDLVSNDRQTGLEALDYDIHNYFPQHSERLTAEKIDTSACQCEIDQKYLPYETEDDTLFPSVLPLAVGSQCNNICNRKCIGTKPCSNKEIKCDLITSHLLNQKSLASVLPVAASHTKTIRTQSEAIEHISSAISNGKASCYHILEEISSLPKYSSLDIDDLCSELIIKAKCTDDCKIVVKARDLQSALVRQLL
# Test: PBM E-score (8-mer binding enrichment) (E-score (-0.5 to 0.5)); higher = stronger / more preferred TF binding
# Conditions: protein concentration: 100 nM; construct: GST-full length
# Method: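 Universal 'all 10-mer' protein binding microarrays (Agilent AMADID 015681) probed with GST-tagged S. cerevisiae TFs (full-length or DBD) made by in vitro transcription/translation (PURExpress), about 100-200 nM. Bound TF was detected with fluorescent anti-GST. Each ungapped 8-mer (which stands for itself and its reverse complement) is scored by the PBM enrichment score (E-score), a modified Wilcoxon-Mann-Whitney statistic from -0.5 to +0.5, computed with the Universal PBM Analysis Suite. Scale: above 0.35 generally sequence-specific binding.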
row,Sequence,PBM E-score
1,AAGACTAT,-0.0274
2,AAGATTCA,-0.00015
3,GACACAGA,0.0727
4,CAGCCTAA,-0.094
5,AAGGGACT,-0.0835
6,CAACACGG,-0.0871
7,CTTCGCGC,0.263
8,CTCCTCGA,-0.151
9,ACGGACAC,0.0856
10,CCGCTCAG,-0.125
11,CCATCGAG,0.14
12,TATTAATA,0.339
13,CCAACTAC,0.0584
14,AGCCATAT,-0.0728
15,ATCGTGCA,0.166
16,ATCGAGAC,0.0095
17,CCAAGGAG,-0.141
18,CGTGTGAA,0.00012
19,GCGATCTA,0.0722
20,CAGGTTCA,-0.134
21,CTGGACTA,-0.104
22,GATCCAGA,0.142
23,CAGCGATA,0.0576
24,AGATAATC,0.0697
25,ACGTACTC,-0.0542

row,Sequence,PBM E-score
1,CCCTATAA,-0.163
2,TCCATAAA,-0.0315
3,CGATCCTC,-0.0855
4,CTCTGGTC,-0.0834
5,AAGGCAGA,-0.147
6,GTCTCCAC,-0.02
7,AATGGTTA,0.103
8,CCACGCCG,-0.0393
9,GATTAATC,0.355
10,CTATTGAG,0.0794
11,AGCGTTCC,0.205
12,CATCCTCG,0.0642
13,ATATGCAA,0.145
14,ATATTATG,0.268
15,GTCGCTAA,0.087
16,ACTTAATG,0.138
17,CCAACGAG,-0.184
18,CTGGTCCC,-0.336
19,AACTATTA,0.112
20,AAGTGGTA,-0.109
21,ATTTTTGA,-0.0179
22,ACCGAGGG,-0.362
23,AGGGCTCG,-0.157
24,AAGAAATG,0.0466
25,CCTCACCA,-0.0853

row,Sequence,PBM E-score
1,CGGGTAAA,0.0979
2,AGCGCGGC,0.0398
3,CCCGGGTC,-0.242
4,CGATTAAA,0.171
5,GATCTGAC,0.0697
6,ATTTGGTA,0.174
7,CTACTCTA,0.031
8,CTGTTCTA,0.0156
9,ACGCATAG,-0.102
10,CTCGGAAC,0.156
11,ATCGTGTA,-0.146
12,TGTAGACA,0.115
13,CATGATAA,0.0688
14,CGGCTCAG,0.00884
15,CAGTCGCA,-0.0677
16,ACGCATCT,0.128
17,GCATGTCC,-0.0901
18,ACCGAATC,0.0443
19,CTGCCACC,-0.182
20,ACAAGCGC,-0.0476
21,ATTAGACA,-0.00626
22,ACGGAGAT,-0.0194
23,AAATTAAC,0.0173
24,AGCCGATG,0.0778
25,GGGACCAC,-0.0444

row,Sequence,PBM E-score
1,AGGTACTG,-0.0341
2,TTTCGAAA,0.0101
3,ATATTGAT,0.219
4,ATCAAACA,0.0662
5,AATCCCAA,-0.0959
6,CCTCGTTC,-0.0702
7,TATTACGA,0.123
8,ACTGGCAT,-0.218
9,CAATTATG,0.105
10,ACGCATAT,0.134
11,CACACCTA,-0.00871
12,CGGGGCCA,-0.118
13,GAGAACGA,-0.0681
14,CGGGGTCC,-0.234
15,AGATCTCA,0.0519
16,GCTCGATA,0.115
17,GTAGTGAC,0.0381
18,CGCATCCA,0.0759
19,CATCGACG,-0.0508
20,AGGCATTA,-0.16
21,GGCTGTAA,-0.0504
22,AAGGGTCG,-0.0629
23,CCACATCG,-0.106
24,CGGGGATA,-0.173
25,AAGTTGTA,0.168

row,Sequence,PBM E-score
1,TCTCTGCA,-0.155
2,TCTGAAGA,-0.194
3,AAACAACA,0.0947
4,CGATTATC,0.0317
5,ACGCCACC,-0.127
6,ATAATTTG,0.278
7,AACATTGG,-0.106
8,ACAATAAA,0.11
9,CCCGTTAA,-0.156
10,GCTCGAGA,-0.00576
11,ACGACGCT,-0.117
12,ATAGCTAC,0.0214
13,CGACGTCC,0.0445
14,AGACATCA,-0.0364
15,CAGGGTTA,-0.0267
16,ACTGTCAC,0.0448
17,AGGTGTTA,-0.0162
18,GCTTATGA,0.0282
19,GTTGTACA,0.286
20,GGCCATGA,0.0245
21,GCCGTTGA,0.0928
22,ATGGCACA,-0.0327
23,CCGTTGAG,-0.00102
24,CTCTCCAA,-0.0619
25,TCTTTTAA,-0.0329

# Some of the entries so far, as tab-separated lines:
row	Sequence	PBM E-score
17	CCAACGAG	-0.184
18	CTGGTCCC	-0.336
19	AACTATTA	0.112
20	AAGTGGTA	-0.109
21	ATTTTTGA	-0.0179
22	ACCGAGGG	-0.362
23	AGGGCTCG	-0.157
24	AAGAAATG	0.0466
25	CCTCACCA	-0.0853
1	CGGGTAAA	0.0979
2	AGCGCGGC	0.0398
3	CCCGGGTC	-0.242
4	CGATTAAA	0.171
5	GATCTGAC	0.0697
6	ATTTGGTA	0.174
7	CTACTCTA	0.031
8	CTGTTCTA	0.0156
9	ACGCATAG	-0.102
10	CTCGGAAC	0.156
11	ATCGTGTA	-0.146
12	TGTAGACA	0.115
13	CATGATAA	0.0688
14	CGGCTCAG	0.00884
15	CAGTCGCA	-0.0677
16	ACGCATCT	0.128
17	GCATGTCC	-0.0901
18	ACCGAATC	0.0443
19	CTGCCACC	-0.182
20	ACAAGCGC	-0.0476
21	ATTAGACA	-0.00626
22	ACGGAGAT	-0.0194
23	AAATTAAC	0.0173
24	AGCCGATG	0.0778
25	GGGACCAC	-0.0444
1	AGGTACTG	-0.0341
2	TTTCGAAA	0.0101
3	ATATTGAT	0.219
4	ATCAAACA	0.0662
5	AATCCCAA	-0.0959
6	CCTCGTTC	-0.0702
7	TATTACGA	0.123
8	ACTGGCAT	-0.218
9	CAATTATG	0.105
10	ACGCATAT	0.134
11	CACACCTA	-0.00871
12	CGGGGCCA	-0.118
13	GAGAACGA	-0.0681
14	CGGGGTCC	-0.234
15	AGATCTCA	0.0519
16	GCTCGATA	0.115
17	GTAGTGAC	0.0381
18	CGCATCCA	0.0759
19	CATCGACG	-0.0508
20	AGGCATTA	-0.16

# The results go on.

row,Sequence,PBM E-score
1,AAGTCTCG,-0.0541
2,CAAAAGTA,0.071
3,ACTAACTA,0.00503
4,CCGGAGGA,-0.28
5,ATGGGCTA,-0.0265
6,CCGCGGGA,0.11
7,ACCGTAAG,0.0917
8,GACCGAAA,0.0749
9,AGTTGGGC,0.0898
10,GGTTTTTA,0.0991
11,TCGTAAAA,-0.006
12,CGCTGAGC,0.0447
13,CCTACGAC,-0.0626
14,ACACGGCC,-0.0553
15,CCAACCAA,-0.162
16,ACTAGCCG,-0.138
17,CCTCTGCA,-0.0497
18,CAGCCCTC,-0.0794
19,AGGCGGTG,-0.203
20,CTATGGCA,-0.0669
21,TCATGCCA,-0.00285
22,ATTTAATA,0.316
23,AAATGGAA,0.0236
24,TATGAACA,0.0656
25,GCGAGGCA,-0.0231

row,Sequence,PBM E-score
1,AAGACGCT,-0.149
2,TTATCAAA,0.3
3,GCGCTACC,-0.0736
4,AAGAAGCA,0.0443
5,CGAGAAAA,0.0659
6,CTAATCGC,0.0731
7,CACAAAAG,0.117
8,CAGGGCTC,-0.158
9,GTGAGGTA,-0.127
10,CAGCCACC,-0.0873
11,AGTAATAT,0.346
12,CTCAGACC,-0.106
13,GATGGCAC,-0.156
14,AGTCTGAC,0.0767
15,AAAACTGA,-0.00318
16,CACGATTA,0.162
17,ATCCTTCG,-0.116
18,GGTGGGTA,-0.0656
19,CGCGACCA,0.0986
20,AGATTATA,-0.0147
21,ATTCTCCG,0.0526
22,AAACACGA,0.139
